Reference: US20120135451A1, “Method and Apparatus for Evaluation of Toxicity” (BIOPHOS SA, priority 2009, published 2012)
pIC50: −log10 of the molar value.

Test system: boar spermatozoa
Assay: Toxicity evaluation by motility of boar spermatozoa (Qualisperm)
Format: cell-based
Details: 0.5 h, % motile spermatozoa (all moving spermatozoa), 30 minutes incubation, around 60 million/ml boar spermatozoa, read-out: IC50 % motille
Method: Quadruple samples of each test compound were prepared in varying concentrations by serial dilution in a 96 microwell-plate by serial dilution into XCell with DMSO. Equal volumes (50 μl) of boar spermatozoa in a concentration of around 60 million/ml were added to all sample solutions. Subsequently, the microwell plate was shaken and incubated for 30 minutes. The dosing was performed by using an automated TECAN® robot. After the incubation the sample solutions were pipetted on a Leja® slide and the motility of the spermatozoa was analysed using a Qualisperm® apparatus from Biophos AG. A dose response curve was obtained where % motile spermatozoa (all the moving spermatozoa), % progressive spermatozoa (share of spermatozoa above a pre-determined threshold, here: above 25 μm/sec), or mean speed of total motile spermatozoa was plotted as a function of the logarithmic concentration of the test compound expressed in mM. From the dose curve IC50 values were calculated.

CCCCc1oc2ccccc2c1C(=O)c1cc(I)c(OCCN(CC)CC)c(I)c1 [Amiodarone]
pIC50: 4.96
